Some of the results follow.

In this assay the target is T1, OsSMF1 (Oryza sativa, UniProt Q6ZLB0 1-436).
T1 sequence: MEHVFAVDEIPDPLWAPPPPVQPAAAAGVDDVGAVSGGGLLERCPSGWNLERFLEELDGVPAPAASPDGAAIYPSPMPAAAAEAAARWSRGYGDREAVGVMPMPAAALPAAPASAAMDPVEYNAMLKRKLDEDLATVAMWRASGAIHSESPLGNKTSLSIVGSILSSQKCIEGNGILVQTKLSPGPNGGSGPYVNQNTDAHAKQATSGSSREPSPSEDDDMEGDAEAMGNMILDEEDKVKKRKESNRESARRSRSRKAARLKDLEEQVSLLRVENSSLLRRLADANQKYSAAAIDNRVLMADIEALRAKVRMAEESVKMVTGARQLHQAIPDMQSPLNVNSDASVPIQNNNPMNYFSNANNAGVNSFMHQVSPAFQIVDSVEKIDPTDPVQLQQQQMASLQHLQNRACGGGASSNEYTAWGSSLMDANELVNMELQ
Description: protein-binding microarray (RPBM); PBS, 2% BSA, 51.3 ng/ul salmon testes DNA, 50 uM zinc acetate, 200 nM TF, 25 C, 1 h; high values mean tight binding. Particulars: protein: recombinant; tags: N-terminal polyhistidine and DsRed monomer fusion (pET32a); chain copies: 2; label: CyDye5-dUTP incorporated in the synthesized complementary strand; 3' TTTTT single-stranded linker to array surface; dsDNA, one strand shown. In short, it runs like this: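 The binding signal is fluorescence intensity per feature, in arbitrary units, read on an Axon 4000B scanner. Polyhistidine- and DsRed-tagged transcription factors (N-terminal fusions) from E. coli BL21-CodonPlus were purified on Ni–NTA and applied at 200 nM for 1 h at 25 °C to a double-stranded, BSA-blocked custom Agilent array in buffer with 50 µM zinc acetate.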
For the sequence “GAATGGCTGCGAGGACAACACGTACGCCGTCTCGGCCGGCCGGAGTCACCTAGTGCAG”, the binding signal was 3960 fluorescence intensity (a.u.). Turning to “AAAGGTGTACGTATGTACGTAGATACGTGTAGACCTCACCCGGAGTCACCTAGTGCAG”, the binding signal was 3580 fluorescence intensity (a.u.).

Take “GGCGTAATTAGGCTTAAAAGATTCGTCAGGCAATTTACCCCGGAGTCACCTAGTGCAG”: the binding signal is 3740 fluorescence intensity (a.u.). Consider “GGGCGCGGGAGTAGCAGCCGCGGTGCGGTGAGGTGGCGGGCGGAGTCACCTAGTGCAG”, for which the binding signal is 6820 fluorescence intensity (a.u.). In the case of “TGCCTTCTTCCTCCAGATTCCGTCCATCTGTGCAGAGAGTCGGAGTCACCTAGTGCAG” it was 3510 fluorescence intensity (a.u.); in that of “TAGGTGAAGTTTAGAAAAGATTAGAGCCTTCACATTGAGGCGGAGTCACCTAGTGCAG”, 15400 fluorescence intensity (a.u.); in that of “ATTGTTGGGTTTAGTCCCACATCAGTAATTGATGATGGGGCGGAGTCACCTAGTGCAG”, 3370 fluorescence intensity (a.u.). Regarding “CGGCCGTGTTAAGCCTCTTCCAAAGTCAGCTGAGTTGTGCCGGAGTCACCTAGTGCAG”, the binding signal was 5460 fluorescence intensity (a.u.). Regarding “TCCAAAATCAATAAATTCTAGCACGTCACTCCGTAAGTACCGGAGTCACCTAGTGCAG”, the binding signal was 5120 fluorescence intensity (a.u.).

Consider “CAGAAAATAGTTGCTCCCGAAATTGGAATCTGAAAATCGCCGGAGTCACCTAGTGCAG”, for which the binding signal is 24900 fluorescence intensity (a.u.). “CGTACGGTCTCGATCGCCGGCCACGTGGTGGATATTAAATCGGAGTCACCTAGTGCAG”: the binding signal was 8860 fluorescence intensity (a.u.). In the case of “TAACTCACGAGGTTCCCCTGAAGGACATCAACACGGCATTCGGAGTCACCTAGTGCAG” it was 3460 fluorescence intensity (a.u.); in that of “CTCCACATAACTAGAAATATGATGTGGCAACTTGTATAGTCGGAGTCACCTAGTGCAG”, 14100 fluorescence intensity (a.u.); in that of “TTCCACCACACGTGGAATCGTGGATTGCCAAATTGCCATGCGGAGTCACCTAGTGCAG”, 5610 fluorescence intensity (a.u.). “TACAGCAGTAAGATGCGTCGCCACGTTGTTTCACATTGCACGGAGTCACCTAGTGCAG”: the binding signal is 5760 fluorescence intensity (a.u.). Take “GTTTTCTACTGTGCACGTGCGTACGTTGGTTTCCTCTTGGCGGAGTCACCTAGTGCAG”: the binding signal was 3580 fluorescence intensity (a.u.).

As for “ACCAGTGCGCCACTGCCAGCGCAGCACCCGCCCGGTTTAACGGAGTCACCTAGTGCAG”, the binding signal is 3240 fluorescence intensity (a.u.). In the case of “ACGCTCAGCTTCTCGAAGCACACGTCGCGTCCCACCACGTCGGAGTCACCTAGTGCAG” it was 4040 fluorescence intensity (a.u.). In the case of “ACTTTGAGTAGAGTTAGTAGTACAACCCTGGCCCATGACGCGGAGTCACCTAGTGCAG” it was 25800 fluorescence intensity (a.u.); in that of “GGTCGAGATATCCCGTATCGTGATTCAGCCATATAAATCACGGAGTCACCTAGTGCAG”, 3890 fluorescence intensity (a.u.). “TCCATGATTTGTCACGTGGGTGTTCAGTGCTATAGCTCCTCGGAGTCACCTAGTGCAG”: the binding signal is 4170 fluorescence intensity (a.u.). In the case of “TTAGCAGAAGCCGCGCACCACGCGCACGCGCACGTCCGCGCGGAGTCACCTAGTGCAG” it was 5320 fluorescence intensity (a.u.); in that of “GAGTAGGCCCTGACGGCGACCCTCGCGGTCATGCCCAGCACGGAGTCACCTAGTGCAG”, 4610 fluorescence intensity (a.u.). The figure for “TCTAGAGGAATGAGCGGGAGAAATGGAGAGAAAAGAGAGGCGGAGTCACCTAGTGCAG” is 3210 fluorescence intensity (a.u.); for “CACGTACACAATTATGTTGGCTATAGTGAATCCTAGATTGCGGAGTCACCTAGTGCAG” it is 3170 fluorescence intensity (a.u.); for “CGGCCGTGCCGCTTCCGAGTTCGTCCGTGTGCACTGCCCTCGGAGTCACCTAGTGCAG” it is 3360 fluorescence intensity (a.u.).

Turning to “GGCAACCGCCCTTAAGGTGTGAGACAGCACGACAACGCCCCGGAGTCACCTAGTGCAG”, the binding signal is 3690 fluorescence intensity (a.u.).

Take “AAAGCTCGCGGCGTAAAGAAGTTGCTGCGTAATGCATGCCCGGAGTCACCTAGTGCAG”: the binding signal was 3190 fluorescence intensity (a.u.).

Turning to “CTTAAAGCAGTTTGACTTTGACCAAAGTCAAAACGTCTTACGGAGTCACCTAGTGCAG”, the binding signal is 40600 fluorescence intensity (a.u.). The figure for “ACGCCTCACCTCACCTCACCTCACCGCCGTCTCCTTCCTCCGGAGTCACCTAGTGCAG” is 3280 fluorescence intensity (a.u.); for “ATCGTTTTCTGTCTCTTACGTGTACCTTTCAATACCCATCCGGAGTCACCTAGTGCAG” it is 10200 fluorescence intensity (a.u.). The figure for “CCAACTAAAGCACGCCTTGCCATTGGTTGACTCTGCACCTCGGAGTCACCTAGTGCAG” is 3890 fluorescence intensity (a.u.); for “CCTCTCTTAACACTGCACACTGCCAACTTATCCATCAATTCGGAGTCACCTAGTGCAG” it is 3160 fluorescence intensity (a.u.). On to “TCTCAAGGCCCTCGTCCTGGTACGCCATTAATACCCACCACGGAGTCACCTAGTGCAG”, for which the binding signal was 25400 fluorescence intensity (a.u.).

For “TATAACTTACTTTCCTCTGACATAGATCGATATCTAGACCCGGAGTCACCTAGTGCAG”, the binding signal was 3630 fluorescence intensity (a.u.).

With “GTCACCTTAACCTCAGTGTTGTTTCACCTGCCACGCCAGCCGGAGTCACCTAGTGCAG”, the binding signal is 7130 fluorescence intensity (a.u.). As to “ACAGGCCATACTTGGACCTAACGTAGTGACGTTGCCACCGCGGAGTCACCTAGTGCAG”, the binding signal is 4860 fluorescence intensity (a.u.). In the case of “GTTGTCCTAGTCATCGGACGCCGCCCACCTACCCGACTACCGGAGTCACCTAGTGCAG”, the binding signal was 9400 fluorescence intensity (a.u.). The figure for “ATGCATGCTCGATCACACACACACACACGTTGTTGTTATCCGGAGTCACCTAGTGCAG” is 4010 fluorescence intensity (a.u.). The figure for “GGGGTGCCTCGAACGTCGCATCCCGTAGGATGATCCAACGCGGAGTCACCTAGTGCAG” is 3360 fluorescence intensity (a.u.); for “GGGAGGCTCAAACGAAGCCACGCAGTCATACTCATATGTGCGGAGTCACCTAGTGCAG” it is 5170 fluorescence intensity (a.u.). As for “TTCACCGTGTTCGGCGTCGCTGACATGTTCACCTTCATCGCGGAGTCACCTAGTGCAG”, the binding signal was 7760 fluorescence intensity (a.u.).
